# Reference: the supplement of paper PMC10849652
# By UniProt entry, the sequences of proteins in these tests, tags left out. Where a name states a change or a piece, a line headed by the entry shows the natural chain unless it says otherwise.
# UniProt P23443: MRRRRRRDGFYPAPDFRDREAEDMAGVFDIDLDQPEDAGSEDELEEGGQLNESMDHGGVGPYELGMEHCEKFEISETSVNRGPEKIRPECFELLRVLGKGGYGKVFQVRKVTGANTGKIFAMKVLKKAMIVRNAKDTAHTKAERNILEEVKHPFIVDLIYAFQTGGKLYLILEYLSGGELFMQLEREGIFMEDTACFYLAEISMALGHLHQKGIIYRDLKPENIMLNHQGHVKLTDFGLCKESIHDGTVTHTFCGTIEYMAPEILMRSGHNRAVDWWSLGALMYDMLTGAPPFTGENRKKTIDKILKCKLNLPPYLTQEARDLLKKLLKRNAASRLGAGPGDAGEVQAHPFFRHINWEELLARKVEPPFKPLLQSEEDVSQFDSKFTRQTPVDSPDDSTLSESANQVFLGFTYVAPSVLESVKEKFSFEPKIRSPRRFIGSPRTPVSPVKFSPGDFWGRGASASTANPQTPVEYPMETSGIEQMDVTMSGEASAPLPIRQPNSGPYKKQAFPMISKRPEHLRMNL
# UniProt Q15404: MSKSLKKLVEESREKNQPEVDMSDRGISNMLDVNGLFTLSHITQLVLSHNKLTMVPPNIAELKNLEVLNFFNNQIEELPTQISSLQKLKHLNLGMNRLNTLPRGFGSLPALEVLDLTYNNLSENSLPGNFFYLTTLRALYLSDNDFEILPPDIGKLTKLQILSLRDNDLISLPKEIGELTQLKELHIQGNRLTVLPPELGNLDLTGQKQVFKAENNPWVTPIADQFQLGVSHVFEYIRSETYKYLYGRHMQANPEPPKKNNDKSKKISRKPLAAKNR
# UniProt O00442: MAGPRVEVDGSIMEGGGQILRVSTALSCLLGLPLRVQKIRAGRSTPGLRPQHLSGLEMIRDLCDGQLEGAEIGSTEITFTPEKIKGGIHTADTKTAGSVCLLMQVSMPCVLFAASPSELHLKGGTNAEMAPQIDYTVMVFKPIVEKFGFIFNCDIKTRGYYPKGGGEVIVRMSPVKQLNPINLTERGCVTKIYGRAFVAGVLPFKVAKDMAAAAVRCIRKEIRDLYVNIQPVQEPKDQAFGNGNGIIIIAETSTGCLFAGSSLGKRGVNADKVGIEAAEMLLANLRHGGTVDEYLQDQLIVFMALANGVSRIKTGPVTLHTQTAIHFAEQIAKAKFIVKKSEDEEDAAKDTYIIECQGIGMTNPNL
# UniProt Q9NQC3: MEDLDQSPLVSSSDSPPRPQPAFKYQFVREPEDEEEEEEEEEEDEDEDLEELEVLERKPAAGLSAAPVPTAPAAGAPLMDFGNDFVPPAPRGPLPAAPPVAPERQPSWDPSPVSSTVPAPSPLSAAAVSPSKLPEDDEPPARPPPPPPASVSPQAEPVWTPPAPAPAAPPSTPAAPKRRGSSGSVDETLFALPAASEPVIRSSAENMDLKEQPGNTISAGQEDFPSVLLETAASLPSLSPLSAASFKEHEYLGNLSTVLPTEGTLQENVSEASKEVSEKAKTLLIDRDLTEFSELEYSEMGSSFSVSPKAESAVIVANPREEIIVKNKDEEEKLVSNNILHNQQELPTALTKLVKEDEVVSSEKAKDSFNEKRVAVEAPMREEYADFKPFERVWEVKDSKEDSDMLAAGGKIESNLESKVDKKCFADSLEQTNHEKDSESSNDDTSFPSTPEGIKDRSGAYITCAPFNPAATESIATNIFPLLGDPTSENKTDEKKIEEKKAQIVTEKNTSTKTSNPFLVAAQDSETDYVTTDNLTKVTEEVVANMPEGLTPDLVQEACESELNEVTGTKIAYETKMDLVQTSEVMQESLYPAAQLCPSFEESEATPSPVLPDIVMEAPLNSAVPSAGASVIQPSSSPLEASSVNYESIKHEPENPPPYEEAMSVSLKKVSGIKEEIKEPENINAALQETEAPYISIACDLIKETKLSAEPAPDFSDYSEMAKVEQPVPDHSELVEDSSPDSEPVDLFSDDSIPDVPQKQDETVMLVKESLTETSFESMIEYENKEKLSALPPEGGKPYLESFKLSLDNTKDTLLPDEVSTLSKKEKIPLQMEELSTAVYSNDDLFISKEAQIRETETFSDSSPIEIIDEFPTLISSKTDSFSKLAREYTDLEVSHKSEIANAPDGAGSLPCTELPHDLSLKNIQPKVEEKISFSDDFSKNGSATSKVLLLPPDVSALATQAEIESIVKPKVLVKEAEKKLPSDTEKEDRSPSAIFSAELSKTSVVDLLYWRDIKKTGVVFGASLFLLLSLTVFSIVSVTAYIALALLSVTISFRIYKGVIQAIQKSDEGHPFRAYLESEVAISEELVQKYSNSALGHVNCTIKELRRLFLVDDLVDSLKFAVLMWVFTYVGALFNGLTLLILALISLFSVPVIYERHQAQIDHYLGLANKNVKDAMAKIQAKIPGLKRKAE
# UniProt P78345: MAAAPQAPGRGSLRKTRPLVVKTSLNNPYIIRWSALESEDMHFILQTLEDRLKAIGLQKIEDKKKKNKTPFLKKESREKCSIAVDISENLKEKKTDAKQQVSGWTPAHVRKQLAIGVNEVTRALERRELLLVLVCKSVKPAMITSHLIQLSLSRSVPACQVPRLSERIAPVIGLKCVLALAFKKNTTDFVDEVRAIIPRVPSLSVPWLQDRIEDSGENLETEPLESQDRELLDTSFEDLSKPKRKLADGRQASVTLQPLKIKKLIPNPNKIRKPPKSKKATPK
# UniProt Q14684: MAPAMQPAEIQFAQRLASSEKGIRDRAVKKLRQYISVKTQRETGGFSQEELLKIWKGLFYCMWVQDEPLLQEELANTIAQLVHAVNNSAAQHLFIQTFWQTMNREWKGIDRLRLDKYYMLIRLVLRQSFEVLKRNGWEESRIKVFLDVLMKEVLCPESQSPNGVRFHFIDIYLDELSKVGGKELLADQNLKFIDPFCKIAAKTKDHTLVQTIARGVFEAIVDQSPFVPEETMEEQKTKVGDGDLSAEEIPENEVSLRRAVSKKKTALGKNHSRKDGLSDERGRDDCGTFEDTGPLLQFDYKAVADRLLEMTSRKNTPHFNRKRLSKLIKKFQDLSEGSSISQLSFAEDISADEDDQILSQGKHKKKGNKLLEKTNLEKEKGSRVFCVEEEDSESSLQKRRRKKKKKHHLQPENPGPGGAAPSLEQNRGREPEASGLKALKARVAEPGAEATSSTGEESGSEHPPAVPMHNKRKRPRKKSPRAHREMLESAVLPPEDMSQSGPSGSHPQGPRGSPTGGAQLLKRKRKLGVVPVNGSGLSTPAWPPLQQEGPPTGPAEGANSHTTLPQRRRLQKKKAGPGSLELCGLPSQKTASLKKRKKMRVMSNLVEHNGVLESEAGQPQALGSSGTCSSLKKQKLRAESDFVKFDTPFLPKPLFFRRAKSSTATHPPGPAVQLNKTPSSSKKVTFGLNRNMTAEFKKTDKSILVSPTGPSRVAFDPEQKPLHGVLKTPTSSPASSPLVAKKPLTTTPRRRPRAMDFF
# UniProt Q9P2E9: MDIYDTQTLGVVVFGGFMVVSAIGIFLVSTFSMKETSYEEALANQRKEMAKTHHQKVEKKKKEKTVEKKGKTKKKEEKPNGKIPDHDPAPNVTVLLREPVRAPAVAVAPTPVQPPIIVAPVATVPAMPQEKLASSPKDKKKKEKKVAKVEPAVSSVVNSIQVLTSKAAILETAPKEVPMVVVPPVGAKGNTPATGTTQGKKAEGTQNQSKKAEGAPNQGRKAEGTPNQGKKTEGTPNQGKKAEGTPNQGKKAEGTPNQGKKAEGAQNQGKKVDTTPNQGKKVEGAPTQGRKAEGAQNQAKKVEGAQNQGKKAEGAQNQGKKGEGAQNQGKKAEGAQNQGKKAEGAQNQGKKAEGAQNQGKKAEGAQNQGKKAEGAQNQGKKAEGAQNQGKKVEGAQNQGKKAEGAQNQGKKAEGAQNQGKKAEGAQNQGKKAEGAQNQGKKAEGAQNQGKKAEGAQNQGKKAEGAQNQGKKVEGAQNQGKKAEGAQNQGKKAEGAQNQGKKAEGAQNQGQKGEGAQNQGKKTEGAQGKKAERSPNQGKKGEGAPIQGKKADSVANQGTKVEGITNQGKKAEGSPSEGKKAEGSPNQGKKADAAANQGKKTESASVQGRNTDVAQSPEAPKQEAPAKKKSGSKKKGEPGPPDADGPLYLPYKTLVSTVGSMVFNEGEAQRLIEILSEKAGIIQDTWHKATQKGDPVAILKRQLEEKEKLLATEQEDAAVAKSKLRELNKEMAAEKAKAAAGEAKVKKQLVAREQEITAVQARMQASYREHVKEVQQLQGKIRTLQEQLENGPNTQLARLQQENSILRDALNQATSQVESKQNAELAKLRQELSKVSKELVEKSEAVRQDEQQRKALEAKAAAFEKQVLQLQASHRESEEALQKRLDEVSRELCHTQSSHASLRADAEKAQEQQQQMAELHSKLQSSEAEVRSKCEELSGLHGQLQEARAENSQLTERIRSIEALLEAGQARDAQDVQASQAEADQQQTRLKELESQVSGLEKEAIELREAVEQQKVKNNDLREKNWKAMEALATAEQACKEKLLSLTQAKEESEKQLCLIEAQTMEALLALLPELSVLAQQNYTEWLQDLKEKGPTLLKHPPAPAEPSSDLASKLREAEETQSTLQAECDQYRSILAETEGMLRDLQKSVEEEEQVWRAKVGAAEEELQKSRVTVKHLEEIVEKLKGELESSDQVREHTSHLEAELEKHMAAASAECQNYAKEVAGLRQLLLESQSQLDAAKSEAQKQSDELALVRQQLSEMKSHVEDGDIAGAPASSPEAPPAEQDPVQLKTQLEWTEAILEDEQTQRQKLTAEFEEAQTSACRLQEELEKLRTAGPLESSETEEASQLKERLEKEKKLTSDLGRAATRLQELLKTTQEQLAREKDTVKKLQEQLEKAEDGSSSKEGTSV
# UniProt Q6NW29: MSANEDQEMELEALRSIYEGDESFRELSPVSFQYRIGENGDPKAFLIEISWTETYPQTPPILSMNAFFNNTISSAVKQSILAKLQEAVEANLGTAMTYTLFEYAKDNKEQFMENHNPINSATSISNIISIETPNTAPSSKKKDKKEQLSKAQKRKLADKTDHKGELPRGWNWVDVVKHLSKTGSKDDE
# Some of the results follow.
# Experiments:
# Assay in all cases: log2 fold change, soluble protein after heating vs DMSO (PISA); higher = thermal stabilisation; K562 lysate, 10 uM; active = over 0.2 and 3.5 SD of the protein, either way, in both replicates (recomputed)
# lapatinib = compound: CS(=O)(=O)CCNCc1ccc(-c2ccc3ncnc(Nc4ccc(OCc5cccc(F)c5)c(Cl)c4)c3c2)o1 [lapatinib]
# Outline: (§1)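 A 30 min treatment with 10 μM compound was applied to crude K562 extract at 1 mg/mL protein in PBS pH 7.4 with 1 mM MgCl2. Heating for 3 min spanned 48°C-58°C, after which aliquots were pooled, adjusted to 0.5% NP-40 at 4°C and spun at 21,000xg for 90 min. TMTpro 16plex LC-MS/MS of the supernatant, with channel sums equalised, gave values recorded as log-two fold change in thermal stability against solvent controls, from duplicates.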
# pictilisib = compound: CS(=O)(=O)N1CCN(Cc2cc3nc(-c4cccc5[nH]ncc45)nc(N4CCOCC4)c3s2)CC1 [pictilisib]
# Outline: as §1
# crizotinib = compound: C[C@@H](Oc1cc(-c2cnn(C3CCNCC3)c2)cnc1N)c1c(Cl)ccc(F)c1Cl [crizotinib]
# Outline: as §1
# [1] = compound: C[C@H](C1=CC=C(C=C1)C(=O)NC2=C3C=CNC3=NC=C2)N
# Outline: as §1
# duvelisib = compound: C[C@H](Nc1ncnc2nc[nH]c12)c1cc2cccc(Cl)c2c(=O)n1-c1ccccc1 [duvelisib]
# Outline: as §1
# gandotinib = compound: Cc1cc(Nc2cc(CN3CCOCC3)c3nc(C)c(Cc4ccc(Cl)cc4F)n3n2)n[nH]1 [gandotinib]
# Outline: as §1
# tozasertib = compound: Cc1cc(Nc2cc(N3CCN(C)CC3)nc(Sc3ccc(NC(=O)C4CC4)cc3)n2)n[nH]1 [tozasertib]
# Outline: as §1
# doramapimod = compound: Cc1ccc(-n2nc(C(C)(C)C)cc2NC(=O)Nc2ccc(OCCN3CCOCC3)c3ccccc23)cc1 [doramapimod]
# Outline: as §1
# bafetinib = compound: Cc1ccc(NC(=O)c2ccc(CN3CC[C@H](N(C)C)C3)c(C(F)(F)F)c2)cc1Nc1nccc(-c2cncnc2)n1 [bafetinib]
# Outline: as §1
# [2] = compound: Cc1cccc(CC(=O)N2CCc3c2ccc(-c2cn(C)c4ncnc(N)c24)c3F)n1
# Outline: as §1
# nilotinib = compound: Cc1cn(-c2cc(NC(=O)c3ccc(C)c(Nc4nccc(-c5cccnc5)n4)c3)cc(C(F)(F)F)c2)cn1 [nilotinib]
# Outline: as §1
# [3] = compound: Cc1nc(Nc2n[nH]c3c2CN(C(=O)N[C@H](CN(C)C)c2ccccc2)C3(C)C)c2sccc2n1
# Outline: as §1
# dasatinib = compound: Cc1nc(Nc2ncc(C(=O)Nc3c(C)cccc3Cl)s2)cc(N2CCN(CCO)CC2)n1 [dasatinib]
# Outline: as §1
# [4] = compound: Cc1ncc(-c2ccnc(Nc3ccc(S(C)(=O)=O)cc3)n2)n1C(C)C
# Outline: as §1
# [5] = compound: Cn1cc(-c2ccc3c(c2)CCN3C(=O)Cc2cccc(C(F)(F)F)c2)c2c(N)ncnc21
# Outline: as §1
# quisinostat = compound: Cn1cc(CNCC2CCN(c3ncc(C(=O)NO)cn3)CC2)c2ccccc21 [quisinostat]
# Outline: as §1
# tipifarnib = compound: Cn1cncc1[C@@](N)(c1ccc(Cl)cc1)c1ccc2c(c1)c(-c1cccc(Cl)c1)cc(=O)n2C [tipifarnib]
# Outline: as §1
# [6] = compound: NC(=O)Nc1cc(-c2cccc(F)c2)sc1C(=O)N[C@H]1CCCNC1
# Outline: as §1
# [7] = compound: NC(=O)c1cnc(N[C@@H]2CCCC[C@@H]2N)nc1Nc1cccc(-n2nccn2)c1
# Outline: as §1
# [8] = compound: NC1(c2ccc(-c3nc4ccn5c(=O)[nH]nc5c4cc3-c3ccccc3)cc2)CCC1
# Outline: as §1
Target,log2 fold change (lapatinib),log2 fold change (pictilisib),log2 fold change (crizotinib),log2 fold change [1],log2 fold change (duvelisib),log2 fold change (gandotinib),log2 fold change (tozasertib),log2 fold change (doramapimod),log2 fold change (bafetinib),log2 fold change [2],log2 fold change (nilotinib),log2 fold change [3],log2 fold change (dasatinib),log2 fold change [4],log2 fold change [5],log2 fold change (quisinostat),log2 fold change (tipifarnib),log2 fold change [6],log2 fold change [7],log2 fold change [8]
RPS6KB1 (UniProt P23443),inactive: 0.009,inactive: 0.075,inactive: 0.16,inactive: -0.104,inactive: 0.001,inactive: 0.051,inactive: 0.022,inactive: -0.05,inactive: 0.006,inactive: 0.177,inactive: -0.034,inactive: 0.077,inactive: -0.003,inactive: 0.001,inactive: 0.003,inactive: -0.049,inactive: -0.008,inactive: 0.035,inactive: -0.014,active: 0.405
RPS27 (UniProt P42677),inactive: -0.074,inactive: 0.013,inactive: 0.002,inactive: -0.121,inactive: -0.009,inactive: 0.164,inactive: -0.012,inactive: -0.088,inactive: -0.008,inactive: -0.071,inactive: 0.063,inactive: -0.08,inactive: -0.046,inactive: 0.003,inactive: 0.011,inactive: 0.045,inactive: 0.027,inactive: 0.05,inactive: -0.062,inactive: 0.011
RPS29 (UniProt P62273),inactive: -0.024,inactive: 0.03,inactive: 0.054,active: 0.793,inactive: -0.02,inactive: -0.202,inactive: -0.128,inactive: -0.105,inactive: 0.205,inactive: -0.315,inactive: 0.117,inactive: 0.072,inactive: 0.22,inactive: 0.061,inactive: 0.112,inactive: 0.361,inactive: 0.094,inactive: -0.116,inactive: -0.024,inactive: -0.068
RSU1 (UniProt Q15404),inactive: 0.001,inactive: 0.045,inactive: 0.07,active: 0.329,inactive: 0.007,inactive: -0.116,inactive: 0.015,inactive: -0.045,inactive: 0.039,inactive: -0.135,inactive: 0.011,inactive: -0.011,inactive: 0.007,inactive: -0.028,inactive: 0.001,inactive: 0.112,inactive: 0.016,inactive: -0.002,inactive: 0.007,inactive: 0.002
RPL39P5 (UniProt Q59GN2),inactive: -0.008,inactive: -0.016,inactive: 0.081,inactive: 0.012,inactive: 0.028,inactive: 0.031,inactive: -0.049,inactive: -0.024,inactive: 0.09,inactive: 0.015,inactive: -0.053,inactive: 0.011,inactive: 0.054,inactive: -0.051,inactive: 0,inactive: 0.023,inactive: 0,inactive: 0.032,inactive: -0.026,inactive: -0.01
RTCA (UniProt O00442),inactive: 0.005,inactive: 0.006,inactive: -0.002,inactive: -0.029,inactive: 0.016,inactive: 0.039,inactive: -0.072,inactive: -0.014,inactive: -0.024,inactive: -0.025,inactive: 0.026,inactive: 0.027,inactive: -0.016,inactive: -0.012,inactive: 0,inactive: -0.011,inactive: -0.036,inactive: -0.009,inactive: -0.012,inactive: 0.013
RTN4 isoform 2 (UniProt Q9NQC3),inactive: -0.002,inactive: 0.008,inactive: -0.053,inactive: 0.009,inactive: -0.079,inactive: 0.103,inactive: 0.011,inactive: -0.024,inactive: -0.156,inactive: 0.125,inactive: 0.017,inactive: -0.069,inactive: 0.063,inactive: -0.037,inactive: -0.005,inactive: -0.081,inactive: 0.081,inactive: -0.001,inactive: -0.081,inactive: -0.173
RPS8 (UniProt P62241),inactive: -0.011,inactive: 0,inactive: 0.041,inactive: -0.002,inactive: 0.026,inactive: -0.004,inactive: -0.013,inactive: -0.047,inactive: 0.039,inactive: -0.016,inactive: 0.004,inactive: -0.016,inactive: -0.001,inactive: -0.022,inactive: -0.001,inactive: 0.11,inactive: 0.033,inactive: -0.017,inactive: -0.019,inactive: 0.002
RTF1 (UniProt Q92541),inactive: 0.02,inactive: 0.039,inactive: 0.025,inactive: 0.001,inactive: -0.004,inactive: -0.012,inactive: 0.061,inactive: 0.032,inactive: -0.012,inactive: -0.01,inactive: -0.062,inactive: 0.038,inactive: -0.005,inactive: -0.018,inactive: 0.029,inactive: -0.013,inactive: -0.001,inactive: -0.013,inactive: 0.014,inactive: 0.03
RPP38 (UniProt P78345),inactive: 0.011,inactive: 0.02,inactive: 0.001,inactive: -0.084,inactive: -0.03,inactive: 0.027,inactive: 0.029,inactive: 0.011,inactive: -0.014,inactive: 0.06,inactive: -0.017,inactive: 0.023,inactive: 0.012,inactive: -0.033,inactive: -0.012,inactive: -0.008,inactive: 0.032,inactive: -0.018,inactive: -0.002,inactive: 0.013
RPS27A (UniProt P62979),inactive: 0.008,inactive: 0.054,inactive: 0.013,inactive: -0.01,inactive: 0.066,inactive: 0.111,inactive: -0.02,inactive: -0.022,inactive: 0.177,inactive: -0.016,inactive: -0.004,inactive: 0.054,inactive: -0.101,inactive: 0.051,inactive: -0.004,inactive: -0.025,inactive: -0.034,inactive: -0.005,inactive: 0.006,inactive: 0.02
RRP1B (UniProt Q14684),inactive: -0.007,inactive: -0.035,inactive: 0.005,inactive: 0.027,inactive: -0.005,inactive: -0.078,inactive: -0.011,inactive: 0.023,inactive: -0.141,inactive: 0.016,inactive: -0.025,inactive: 0.046,inactive: -0.018,inactive: 0.04,inactive: 0.027,inactive: 0.031,inactive: -0.019,inactive: 0.054,inactive: 0.028,inactive: -0.037
RRBP1 (UniProt Q9P2E9),inactive: -0.029,inactive: -0.005,inactive: -0.008,inactive: 0.067,inactive: -0.008,inactive: -0.09,inactive: -0.013,inactive: -0.017,inactive: -0.012,inactive: -0.043,inactive: -0.001,inactive: 0.003,inactive: 0.012,inactive: -0.006,inactive: 0.006,inactive: 0.003,inactive: -0.039,inactive: 0.018,inactive: 0.004,inactive: -0.009
RPL36AL (UniProt Q969Q0),inactive: 0.05,inactive: 0.031,inactive: 0.216,inactive: 0.01,inactive: -0.033,inactive: -0.038,inactive: 0.047,inactive: -0.131,inactive: 0.137,inactive: 0.003,inactive: 0.034,inactive: 0.038,inactive: 0.094,inactive: 0.055,inactive: 0.04,active: 0.329,inactive: 0.058,inactive: 0.01,inactive: -0.026,inactive: -0.009
RPS19 (UniProt P39019),inactive: -0.011,inactive: -0.001,inactive: 0.033,inactive: 0.049,inactive: 0.006,inactive: -0.046,inactive: 0.002,inactive: -0.015,inactive: 0.001,inactive: -0.069,inactive: 0,inactive: -0.028,inactive: 0.001,inactive: -0.036,inactive: -0.027,inactive: 0.026,inactive: 0.013,inactive: -0.009,inactive: -0.016,inactive: 0.027
RWDD4 (UniProt Q6NW29),inactive: 0.007,inactive: 0.02,inactive: -0.006,inactive: -0.084,inactive: -0.033,inactive: 0.071,inactive: 0.006,inactive: -0.008,inactive: 0.021,inactive: -0.025,inactive: -0.002,inactive: -0.019,inactive: 0.013,inactive: 0.051,inactive: 0.05,inactive: -0.013,inactive: -0.012,inactive: 0.006,inactive: -0.002,inactive: -0.052

# An excerpt of these results, with tabs.
Target	log2 fold change (lapatinib)	log2 fold change (pictilisib)	log2 fold change (crizotinib)	log2 fold change [1]	log2 fold change (duvelisib)	log2 fold change (gandotinib)	log2 fold change (tozasertib)	log2 fold change (doramapimod)	log2 fold change (bafetinib)	log2 fold change [2]	log2 fold change (nilotinib)	log2 fold change [3]	log2 fold change (dasatinib)	log2 fold change [4]	log2 fold change [5]	log2 fold change (quisinostat)	log2 fold change (tipifarnib)	log2 fold change [6]	log2 fold change [7]	log2 fold change [8]
RTF1 (UniProt Q92541)	inactive: 0.02	inactive: 0.039	inactive: 0.025	inactive: 0.001	inactive: -0.004	inactive: -0.012	inactive: 0.061	inactive: 0.032	inactive: -0.012	inactive: -0.01	inactive: -0.062	inactive: 0.038	inactive: -0.005	inactive: -0.018	inactive: 0.029	inactive: -0.013	inactive: -0.001	inactive: -0.013	inactive: 0.014	inactive: 0.03
RPP38 (UniProt P78345)	inactive: 0.011	inactive: 0.02	inactive: 0.001	inactive: -0.084	inactive: -0.03	inactive: 0.027	inactive: 0.029	inactive: 0.011	inactive: -0.014	inactive: 0.06	inactive: -0.017	inactive: 0.023	inactive: 0.012	inactive: -0.033	inactive: -0.012	inactive: -0.008	inactive: 0.032	inactive: -0.018	inactive: -0.002	inactive: 0.013
